Source: patent US10538561B2 (priority 2015, dated 2020)

How the values were obtained:
peptide synthesis = conditions: whole synthesis, mobile phase B 0.1% TFA in ACN, run time 30 min
[1] = Maximum feasible dose (MFD); design: species or system Balb/c mouse

Substance | final HPLC purity (peptide synthesis) | MFD in Balb/c mouse ([1]; 0.9% NaCl (for IV)) | MFD in Balb/c mouse ([1]; 10% v/v Propylene glycol in 0.9% NaCl, i.m.) | MFD in Balb/c mouse ([1]; 10% v/v Propylene glycol in 0.9% NaCl, sc)
WVQRVVEKFLK | Purity NLT 98.0% |  |  | 
H-WVQRVVEKFLK-OH [IS181, H-Trp-Val-Gln-Arg-Val-Val-Glu-Lys-Phe-Leu-Lys-OH] |  | 100 mg/kg | 50 mg/kg (i.m.) | 100 mg/kg (sc)

No end group written: not given here.
